This data set deals with cytochrome c. Description: optical microfiber interferometric aptasensor (wavelength shift, AFM). The settings on record: aptamer immobilized on Ag@RGO nanointerface, sensor LOD 6.82e-17 M (not a Kd); 5'-SH (thiol); Optical microfiber in microchannel chip; Tris buffer pH 7.4 listed as reagent; commercial protein; single-stranded DNA.

The record followed here is paper PMC6096990.

For at least one entry, the source does not settle the construct or the ends of the probe.

As for “CCCTGTCTGGGGCCGACCGGCGCATTGGGTACGTTGTTGC [cyt c ssDNA aptamer]”, the binding result is “binds”.
